For assay [1], the target named is Gαi1 (UniProt P63096). The assay is described as follows: pull-down of radiolabeled Gα subunit by biotinylated peptide on NeutrAvidin-agarose, scintillation counting.
Assay [2] has as its target Gαi1 (UniProt P63096). The assay is described as follows: general statement in Experiment No. 4; no assay named there.

Sequences of proteins named here, by UniProt entry; tags and fusion partners are left off.
UniProt P63096: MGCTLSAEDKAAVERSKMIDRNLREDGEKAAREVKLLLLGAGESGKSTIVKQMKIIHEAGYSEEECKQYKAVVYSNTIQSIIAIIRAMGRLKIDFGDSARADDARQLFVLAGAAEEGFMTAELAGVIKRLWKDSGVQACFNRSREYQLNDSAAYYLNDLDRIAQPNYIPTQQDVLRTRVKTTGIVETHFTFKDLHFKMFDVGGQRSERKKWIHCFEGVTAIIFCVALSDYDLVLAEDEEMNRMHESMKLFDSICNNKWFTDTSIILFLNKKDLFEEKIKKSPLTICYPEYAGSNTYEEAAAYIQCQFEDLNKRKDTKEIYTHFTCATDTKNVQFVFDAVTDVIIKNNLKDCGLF

No constants are given. Whether binding was seen depends on the method and setting. Some results given as binding are weak or reduced against the parent protein; the word gives no strength.

The source of these data is patent publication US20150050211A1 (UNIVERSITY OF SOUTHERN CALIFORNIA, published 2015).

B1: C-terminally biotinylated cycGIBP (peptide)
peptide: MITWYEFVAGTK
modifications: cyclized from the lysine side chain to the N-terminus; biotin at the C-terminus
For the molecule B1, the binding result with Gαi1 [1] and with Gαi1 [2] was “binds” each time.
